# Test results taken from article PMC11139976.
# By UniProt entry, the sequences of proteins in these tests, tags left out.
# UniProt P50750: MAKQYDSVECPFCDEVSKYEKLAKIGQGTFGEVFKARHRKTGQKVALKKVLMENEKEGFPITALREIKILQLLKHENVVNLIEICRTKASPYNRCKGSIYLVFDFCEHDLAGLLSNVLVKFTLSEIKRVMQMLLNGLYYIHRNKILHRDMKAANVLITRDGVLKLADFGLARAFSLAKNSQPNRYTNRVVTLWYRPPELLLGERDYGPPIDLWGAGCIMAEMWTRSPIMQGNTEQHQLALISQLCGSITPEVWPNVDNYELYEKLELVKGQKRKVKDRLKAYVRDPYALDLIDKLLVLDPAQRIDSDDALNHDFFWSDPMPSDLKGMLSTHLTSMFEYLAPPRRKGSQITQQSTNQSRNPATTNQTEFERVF
# UniProt O94992: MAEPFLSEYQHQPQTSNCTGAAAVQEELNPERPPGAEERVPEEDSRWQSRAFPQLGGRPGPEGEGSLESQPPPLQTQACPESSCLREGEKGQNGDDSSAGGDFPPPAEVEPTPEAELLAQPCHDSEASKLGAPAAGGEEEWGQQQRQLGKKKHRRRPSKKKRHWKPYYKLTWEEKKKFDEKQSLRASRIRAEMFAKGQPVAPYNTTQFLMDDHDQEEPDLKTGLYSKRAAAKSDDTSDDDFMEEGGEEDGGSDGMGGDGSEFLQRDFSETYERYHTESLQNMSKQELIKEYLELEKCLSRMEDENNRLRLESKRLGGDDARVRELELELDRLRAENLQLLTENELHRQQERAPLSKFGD
# No constants are given. Whether binding was seen depends on the method and setting. In cells and extracts the contact can be indirect. Some entries that bind do so weakly or less than the wild type.
# Molecular target: CDK9 (human (endogenous in SU-DIPG4)) (UniProt P50750)
# Experiment: co-IP; SU-DIPG4 whole cell extracts (500 ug), precleared, immunoprecipitated with 7 ug anti-CDK9 antibody or rabbit IgG, 4 h at 4 degrees, protein G magnetic beads, immunoblot; cells before and 4 h after 6 Gy IR
row,binding,Molecule
1,binds,HEXIM1 (from UniProt O94992 1-359)
2,binds,"LARP7 (protein, UniProt Q4G0J3 1-582) METESGNQEKVMEEESTEKKKEVEKKKRSRVKQVLADIAKQVDFWFGDANLHKDRFLREQIEKSRDGYVDISLLVSFNKMKKLTTDGKLIARALRSSAVVELDLEGTRIRRKKPLGERPKDEDERTVYVELLPKNVNHSWIERVFGKCGNVVYISIPHYKSTGDPKGFAFVEFETKEQAAKAIEFLNNPPEEAPRKPGIFPKTVKNKPIPALRVVEEKKKKKKKKGRMKKEDNIQAKEENMDTSNTSISKMKRSRPTSEGSDIESTEPQKQCSKKKKKRDRVEASSLPEVRTGKRKRSSSEDAESLAPRSKVKKIIQKDIIKEASEASKENRDIEISTEEEKDTGDLKDSSLLKTKRKHKKKHKERHKMGEEVIPLRVLSKSEWMDLKKEYLALQKASMASLKKTISQIKSESEMETDSGVPQNTGMKNEKTANREECRTQEKVNATGPQFVSGVIVKIISTEPLPGRKQVRDTLAAISEVLYVDLLEGDTECHARFKTPEDAQAVINAYTEINKKHCWKLEILSGDHEQRYWQKILVDRQAKLNQPREKKRGTEKLITKAEKIRLAKTQQASKHIRFSEYD"
3,binds,"MEPCE (protein, UniProt Q7L2J0 1-689) MIEMAAEKEPFLVPAPPPPLKDESGGGGGPTVPPHQEAASGELRGGTERGPGRCAPSAGSPAAAVGRESPGAAATSSSGPQAQQHRGGGPQAQSHGEARLSDPPGRAAPPDVGEERRGGGGTELGPPAPPRPRNGYQPHRPPGGGGGKRRNSCNVGGGGGGFKHPAFKRRRRVNSDCDSVLPSNFLLGGNIFDPLNLNSLLDEEVSRTLNAETPKSSPLPAKGRDPVEILIPKDITDPLSLNTCTDEGHVVLASPLKTGRKRHRHRGQHHQQQQAAGGSESHPVPPTAPLTPLLHGEGASQQPRHRGQNRDAPQPYELNTAINCRDEVVSPLPSALQGPSGSLSAPPAASVISAPPSSSSRHRKRRRTSSKSEAGARGGGQGSKEKGRGSWGGRHHHHHPLPAAGFKKQQRKFQYGNYCKYYGYRNPSCEDGRLRVLKPEWFRGRDVLDLGCNVGHLTLSIACKWGPSRMVGLDIDSRLIHSARQNIRHYLSEELRLPPQTLEGDPGAEGEEGTTTVRKRSCFPASLTASRGPIAAPQVPLDGADTSVFPNNVVFVTGNYVLDRDDLVEAQTPEYDVVLCLSLTKWVHLNWGDEGLKRMFRRIYRHLRPGGILVLEPQPWSSYGKRKTLTETIYKNYYRIQLKPEQFSSYLTSPDVGFSSYELVATPHNTSKGFQRPVYLFHKARSPSH"
